Experimental data as given in PMC2734992.

Target: TK3-SH3 (SH3 domain of SmTK3) (Schistosoma mansoni)
Test: two-hybrid; comparative liquid β-Gal assay (ONPG) of AH109 cells retransformed with prey clone and bait TK3-SH3 or TK3-US-SH3; relative binding strength, n = 6

binding | Binder
binds | SmDia clone ID2 (domain or fragment, UniProt C0MP97 432-1067) ADASTRVEELQAKLDAALQAKLEAEAKVQTLQSHLSSGDRSTIKLTPDILPPPSLSSSIPPPPGIPPPPPMEGVPPPPPPPPPPPPPPMGGIPPPPPPMGSIPPPPPPMGGVPPPPPGFQSSKPPDELPFGMKPKKKYTLDVPMKKANWEKIKPNMLDKDSVWVQLHEDELEYGDLLKNLSAQFSTKPAKVMVSDSTSDGAAAAGNLQGIQSRKTKKLRYLDDKVAQNLSILLGSLKVPYDELRRRILTVDESLLTPNMLEQLVKALPEPSVISKISSLKDEYEALAEPEQFVCKVSDIKKLIPRLNSILFKMKFNEKLSEVKPEIVDVDEALQEIHFSKHFKRILELVLLLGNYMNAGSRNAEAIGFEISFLTKLEATKDVSNSQTLLHFLIGSLDRKFPETVKGFLDDFSHVERACRVSEDSLKANIAEMKKSVSNIDTDLKTYKAQEPNDNYIPVMQDFLVSAKEQLSQLEMMHKRMQDKFVTVSKYLAFDPNKYHMENLFSDLKDFHVAFKRSASDLAKKHALEEKMKKARDEQARRQREREDKAILNSSGPRAPTEEEGNVIDNLMEALKSGAAFANRGERSAVRRNRNRVSPAAANLASVASPSAIRQRQLMRARSRNYGDLPRSVVDVA
binds | SmDia clone ID1 (domain or fragment, UniProt C0MP97 402-1067) NDGVDPDPHMNILRLDVESTVALLVDALKEADASTRVEELQAKLDAALQAKLEAEAKVQTLQSHLSSGDRSTIKLTPDILPPPSLSSSIPPPPGIPPPPPMEGVPPPPPPPPPPPPPPMGGIPPPPPPMGSIPPPPPPMGGVPPPPPGFQSSKPPDELPFGMKPKKKYTLDVPMKKANWEKIKPNMLDKDSVWVQLHEDELEYGDLLKNLSAQFSTKPAKVMVSDSTSDGAAAAGNLQGIQSRKTKKLRYLDDKVAQNLSILLGSLKVPYDELRRRILTVDESLLTPNMLEQLVKALPEPSVISKISSLKDEYEALAEPEQFVCKVSDIKKLIPRLNSILFKMKFNEKLSEVKPEIVDVDEALQEIHFSKHFKRILELVLLLGNYMNAGSRNAEAIGFEISFLTKLEATKDVSNSQTLLHFLIGSLDRKFPETVKGFLDDFSHVERACRVSEDSLKANIAEMKKSVSNIDTDLKTYKAQEPNDNYIPVMQDFLVSAKEQLSQLEMMHKRMQDKFVTVSKYLAFDPNKYHMENLFSDLKDFHVAFKRSASDLAKKHALEEKMKKARDEQARRQREREDKAILNSSGPRAPTEEEGNVIDNLMEALKSGAAFANRGERSAVRRNRNRVSPAAANLASVASPSAIRQRQLMRARSRNYGDLPRSVVDVA

These are yes or no findings as the source states them, for the method shown. A result given as binding can be weak or reduced; the word gives no strength.
